Laboratory results taken from paper PMC4746285, “Functional Analysis of the Citrate Activator CitO from Enterococcus faecalis Implicates a Divalent Metal in Ligand Binding” (Frontiers in Microbiology, 2016).
For at least one entry, the source does not settle the construct or the ends of the probe. At least one verdict rests on a figure or table, not on a statement of the authors.

System: CitO-wt (Enterococcus faecalis)
Experiment: EMSA
Settings: 5 mM citrate, binding unaffected by metal, recombinant protein, protein details: His-tag (pET-citO), label: 5' biotin, probe letters rebuilt from the primers and the genome

Measured: binding result

GGTATACGTTCATTATAGAAAAAACCGTTAAAAAACCTAGTGAAAACACTAGCTCAGATTGTTCTTTTATTGTTTATTTTGTGAAAAAAACTCTGTAAACATTGGTATATAAGCATTTATCAGCCGTTAAGATTCTATTAATATTATATTAAGTTATTAATAAGAATTTGATTGTTGAATTGTTTTTTTGATGTTCTTTTTGTTTTAGGCTATTTATTCTCTGCGAAAGTTTGTATATTCTCACAC (double strand) [PcitH-CL]
binds: 2 mM Ca2+ | 2 mM Mg2+ | 2 mM Mn2+ | 2 mM Ni2+ | 2 mM Zn2+
